This assay has as its target Cpne4 vWA domain (yeast two-hybrid bait) (UniProt Q8BLR2). Kind of assay: two-hybrid; Gal4 based; Cpne4 vWA domain in pGBKT7 (Y187) as bait mated with an adult mouse retina cDNA library in pGADT7 (AH109) as prey; quadruple selection (Trp, Leu, Ade, His) with X-alpha-Gal, 30°C; positive clones replated, colony PCR and Sanger sequencing.

Sequences of proteins named here, by UniProt entry; tags and fusion partners are left off. A change or cut given only in a name is not applied to a line headed by its entry.
UniProt Q8BLR2: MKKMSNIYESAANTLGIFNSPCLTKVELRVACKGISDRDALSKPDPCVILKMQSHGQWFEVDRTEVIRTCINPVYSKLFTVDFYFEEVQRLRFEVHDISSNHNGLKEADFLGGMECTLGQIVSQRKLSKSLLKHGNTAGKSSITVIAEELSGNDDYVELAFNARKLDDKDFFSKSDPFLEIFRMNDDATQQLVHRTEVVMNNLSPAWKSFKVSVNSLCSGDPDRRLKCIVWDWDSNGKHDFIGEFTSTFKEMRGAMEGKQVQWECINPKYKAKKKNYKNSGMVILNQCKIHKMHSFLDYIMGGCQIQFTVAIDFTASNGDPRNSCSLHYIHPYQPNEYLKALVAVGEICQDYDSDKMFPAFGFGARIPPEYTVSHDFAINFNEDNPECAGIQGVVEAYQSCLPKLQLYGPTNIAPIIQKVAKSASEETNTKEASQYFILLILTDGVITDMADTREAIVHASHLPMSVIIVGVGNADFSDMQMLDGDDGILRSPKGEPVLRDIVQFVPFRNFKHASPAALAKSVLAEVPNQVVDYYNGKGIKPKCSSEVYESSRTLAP

No constants are given. Whether binding was seen depends on the method and setting. Binding can be weak; no strength is given.

B1: Tox3 Y2H clone (amino acids 200-492) (domain or fragment, UniProt Q80W03 200-492)
chain: SPPASKSATPSPSSSINEEDADDANRAIGEKRTAPDSGKKPKTPKKKKKKDPNEPQKPVSAYALFFRDTQAAIKGQNPNATFGEVSKIVASMWDSLGEEQKQVYKRKTEAAKKEYLKALAAYRASLVSKAAAESAEAQTIRSVQQTLASTNLTSSLLLNTSLSQHGTVPASPQTLPQSLPRSIAPKPLTMRLPMSQIVTSVTIAANMPSNIGAPLISSMGTTMVGSATSTQVSPSVQTQQHQMQLQQQQQQQQQMQQMQQQQLQQHQMHQQIQQQMQQQHFQHHMQQHLQQQQ
With B1, the binding result is given as “binds”.
